Data from patent US20250154171A1, “RAS INHIBITORS” (Revolution Medicines, Inc., priority 2023, published 2025).
Some entries share one result that the patent states for a list of compounds.

Protein sequences, listed by entry. Tags and fused reporters are not part of them. Lines headed by an entry give the natural chain unless they say otherwise; changes in a name come on top. Residues count along the entry.
UniProt P01116, 1-188 isoform P01116-2 G12V: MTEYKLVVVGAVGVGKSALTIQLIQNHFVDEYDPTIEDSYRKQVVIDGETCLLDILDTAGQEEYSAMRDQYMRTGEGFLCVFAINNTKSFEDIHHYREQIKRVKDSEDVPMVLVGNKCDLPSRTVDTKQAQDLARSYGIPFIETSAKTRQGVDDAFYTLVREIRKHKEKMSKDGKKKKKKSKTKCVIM
UniProt P62937, whole entry: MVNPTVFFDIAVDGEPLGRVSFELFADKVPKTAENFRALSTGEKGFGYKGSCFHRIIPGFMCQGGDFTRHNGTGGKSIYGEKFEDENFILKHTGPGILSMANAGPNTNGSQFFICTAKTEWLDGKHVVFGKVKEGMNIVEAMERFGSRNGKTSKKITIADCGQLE

Experiments:
K-RasG12V = K-RasG12V (Homo sapiens, UniProt P01116+P62937, G12V); assay: Disruption of BRAF RBD interaction with K-Ras (TR-FRET / MOA assay), K-RasG12V; type: biochemical; settings: TR-FRET with cyclophilin A and GST-BRAF RBD, read-out: IC50 with respect to K-RasG12V (disruption of BRAF RBD interaction)
Capan-1 (K-Ras G12V) = assay: CellTiter-Glo cell viability assay, Capan-1; type: cell-based, human; settings: 5-day treatment, Capan-1 versus A375

Structure (SMILES) | IC50 (K-RasG12V) [nM] | decrease in cell viability with respect to KRAS G12V (Capan-1) versus wild-type KRAS (A375) (Capan-1 (K-Ras G12V))
COC1CN([C@@H]2c3nc(cs3)-c3ccc4c(c3)c(c(-c3cc(N5CCN(C6CC6)CC5)cnc3[C@H](C)OC)n4CCOC3CCOCC3)CC(C)(C)COC(=O)[C@@H]3CCCN(N3)C(=O)[C@H]2NC(=O)C23CC(C2)[C@@H](C)O3)C1 (racemic) [Example A428] | < 1000 | greater decrease in cell viability
CO[C@@H](C)c1ncc(N2CCN(C3CC3)CC2)cc1-c1c2c3cc(ccc3n1CCOC1CCOCC1)-c1csc(n1)[C@@H](N1CC3(COC3)C1)[C@H](NC(=O)C13CC(C1)[C@@H](C)O3)C(=O)N1N[C@H](C(=O)OCC(C)(C)C2)C2CC1C2 (racemic) [Example A430] | < 1000 | greater decrease in cell viability
CO[C@@H](C)c1ncc(N2CCN(C3CC3)CC2)cc1-c1c2c3cc(ccc3n1CCO[C@H]1CCOC(C)(C)C1)-c1csc(n1)[C@@H](N1CC3(COC3)C1)[C@H](NC(=O)[C@H]1[C@H](C)[C@@H]1C)C(=O)N1CCC[C@H](N1)C(=O)OCC(C)(C)C2 (racemic) [Example A431] | < 1000 | greater decrease in cell viability
CO[C@@H](C)c1ncccc1-c1c2c3cc(ccc3n1C1COC1)-c1csc(n1)[C@@H](N1CC3(COC3)C1)[C@H](NC(=O)[C@H]1[C@H](C)[C@@H]1C)C(=O)N1N[C@H](C(=O)OCC(C)(C)C2)C2CC1C2 (racemic) [Example A432] | < 1000 | greater decrease in cell viability
CCO[C@@H]1c2nc(cs2)-c2ccc3c(c2)c(c(-c2cc(N4CCN(C5CC5)CC4)cnc2[C@H](C)OC)n3CCOC2CCOCC2)CC(C)(C)COC(=O)[C@H]2NN(C(=O)[C@H]1NC(=O)C13CC(C1)C(C)O3)C1CC2C1 (mixture of isomers) [Example A436] | < 1000 | greater decrease in cell viability
CO[C@@H](C)c1ncc(N2CCN(C3CC3)CC2)cc1-c1c2c3cc(ccc3n1CCOC1CCOCC1)-c1csc(n1)[C@@H](N1CC3(COC3)C1)[C@H](NC(=O)[C@H]1[C@H](C)[C@@H]1C)C(=O)N1N[C@H](C(=O)OCC(C)(C)C2)C2CC1C2 (racemic) [Example A437] | < 1000 | greater decrease in cell viability
CO[C@@H](C)c1ncc(N2CCN(C3CC3)CC2)cc1-c1c2c3cc(ccc3n1CCOC1CCOC(C)(C)C1)-c1csc(n1)[C@@H](N1CCOCC1)[C@H](NC(=O)[C@@H]1[C@@H](C)[C@H]1c1ccccn1)C(=O)N1N[C@H](C(=O)OCC(C)(C)C2)C2CC1C2 (mixture of isomers) [Example A438] | < 1000 | greater decrease in cell viability
CO[C@@H](C)c1ncc(N2CCN(C3CC3)CC2)cc1-c1c2c3cc(ccc3n1CCOC1CCOCC1)-c1csc(n1)[C@@H](N1CC3(CCOCC3)C1)[C@H](NC(=O)[C@H]1[C@H](C)[C@@H]1C)C(=O)N1CCC[C@H](N1)C(=O)OCC(C)(C)C2 (racemic) [Example A439] | < 1000 | greater decrease in cell viability
CO[C@@H](C)c1ncccc1-c1c2c3cc(ccc3n1C1COC1)-c1csc(n1)[C@@H](N1CC3(COC3)C1)[C@H](NC(=O)C13CC(C1)C(C)O3)C(=O)N1CCC[C@H](N1)C(=O)OCC(C)(C)C2 (mixture of isomers) [Example A440] | < 1000 | greater decrease in cell viability
CO[C@@H](C)c1ncccc1-c1c2c3cc(ccc3n1C1CC1)-c1csc(n1)[C@@H](N1CC3(COC3)C1)[C@H](NC(=O)C13CC(C1)[C@H](C)O3)C(=O)N1CCC[C@H](N1)C(=O)OCC(C)(C)C2 (racemic) [Example A441] | < 1000 | greater decrease in cell viability
CO[C@@H](C)c1ncccc1-c1c2c3cc(ccc3n1C1CC1)-c1csc(n1)[C@@H](N1CC3(COC3)C1)[C@H](NC(=O)C13CC(C1)[C@@H](C)O3)C(=O)N1CCC[C@H](N1)C(=O)OCC(C)(C)C2 (racemic) [Example A442] | < 1000 | greater decrease in cell viability
CO[C@@H](C)c1ncccc1-c1c2c3cc(ccc3n1CCO[C@H]1CCOC(C)(C)C1)-c1csc(n1)[C@@H](N1CCCC1)[C@H](NC(=O)C13CC(C1)[C@@H](C)O3)C(=O)N1CCC[C@H](N1)C(=O)OCC(C)(C)C2 (racemic) [Example A444] | < 1000 | greater decrease in cell viability
CO[C@@H](C)c1ncc(N2CCN(C3CC3)CC2)cc1-c1c2c3cc(ccc3n1CCO[C@H]1CCOC(C)(C)C1)-c1csc(n1)[C@@H](N1CC3(COC3)C1)[C@H](NC(=O)C1[C@@H](C)[C@H]1C)C(=O)N1CCC[C@H](N1)C(=O)OCC(C)(C)C2 (mixture of isomers) [Example A445] | < 1000 | greater decrease in cell viability
CO[C@@H](C)c1ncc(N2CCN(C3CC3)CC2)cc1-c1c2c3cc(ccc3n1CCO[C@H]1CCOC(C)(C)C1)-c1csc(n1)[C@@H](N1CCOCC1)[C@H](NC(=O)[C@@H]1[C@@H](C)[C@H]1c1ccncn1)C(=O)N1N[C@H](C(=O)OCC(C)(C)C2)C2CC1C2 (racemic) [Example A446] | < 1000 | greater decrease in cell viability
CO[C@@H](C)c1ncc(N2CCN(C3CC3)CC2)cc1-c1c2c3cc(ccc3n1CCO[C@H]1CCOC(C)(C)C1)-c1csc(n1)[C@@H](N1CCOCC1)[C@H](NC(=O)[C@@H]1[C@@H](C)[C@H]1c1cocn1)C(=O)N1N[C@H](C(=O)OCC(C)(C)C2)C2CC1C2 (racemic) [Example A447] | < 1000 | greater decrease in cell viability
CO[C@@H](C)c1ncc([C@@H]2CCN(C)C2)cc1-c1c2c3cc(ccc3n1C1COC1)-c1csc(n1)[C@@H](N1CCCC1)[C@H](NC(=O)C13CC(CO1)C3)C(=O)N1CCC[C@H](N1)C(=O)OCC(C)(C)C2 (racemic) [Example A448] | < 1000 | greater decrease in cell viability

Further lines, with some results ahead:

IC50 (K-RasG12V) [nM] | Structure (SMILES) | decrease in cell viability with respect to KRAS G12V (Capan-1) versus wild-type KRAS (A375) (Capan-1 (K-Ras G12V))
< 1000 | COC1CN([C@@H]2c3nc(cs3)-c3ccc4c(c3)c(c(-c3cc(N5CCN(C6CC6)CC5)cnc3[C@H](C)OC)n4CCOC3CCOCC3)CC(C)(C)COC(=O)[C@@H]3CCCN(N3)C(=O)[C@H]2NC(=O)[C@@H]2[C@@H](C)[C@H]2c2ccccn2)C1 (racemic) [Example A449] | greater decrease in cell viability
< 1000 | CO[C@@H](C)c1ncccc1-c1c2c3cc(ccc3n1CCO[C@H]1CCOC(C)(C)C1)-c1csc(n1)[C@@H](N1CC3(COC3)C1)[C@H](NC(=O)C13CC(C1)C(C)O3)C(=O)N1CCC[C@H](N1)C(=O)OCC(C)(C)C2 (mixture of isomers) [Example A450] | greater decrease in cell viability
< 1000 | CO[C@@H](C)c1ncc(N2CCN(C3CC3)CC2)cc1-c1c2c3cc(ccc3n1CCOC1CCOCC1)-c1csc(n1)[C@@H](N1CC3(CCC3)C1)[C@H](NC(=O)[C@H]1[C@H](C)[C@@H]1C)C(=O)N1CCC[C@H](N1)C(=O)OCC(C)(C)C2 (racemic) [Example A451] | greater decrease in cell viability
< 1000 | CO[C@@H](C)c1ncc(N2CCN(C3CC3)CC2)cc1-c1c2c3cc(ccc3n1CCOC1CCOCC1)-c1csc(n1)[C@@H](N1CC3(CCC3)C1)[C@H](NC(=O)C13CC(C1)C(C)O3)C(=O)N1CCC[C@H](N1)C(=O)OCC(C)(C)C2 (mixture of isomers) [Example A452] | greater decrease in cell viability
< 1000 | CO[C@@H](C)c1ncc(N2CCN(C3CC3)CC2)cc1-c1c2c3cc(ccc3n1CCOC1CCOCC1)-c1csc(n1)[C@@H](N1CCC3(CCOC3)C1)[C@H](NC(=O)[C@H]1[C@H](C)[C@@H]1C)C(=O)N1CCC[C@H](N1)C(=O)OCC(C)(C)C2 (mixture of isomers) [Example A453] | greater decrease in cell viability
< 1000 | CO[C@@H](C)c1ncc(N2CCN(C3CC3)CC2)cc1-c1c2c3cc(ccc3n1CCOC1CCOCC1)-c1csc(n1)[C@@H](N1CC3(CCOCC3)C1)[C@H](NC(=O)C13CC(C1)C(C)O3)C(=O)N1CCC[C@H](N1)C(=O)OCC(C)(C)C2 (mixture of isomers) [Example A454] | greater decrease in cell viability
< 1000 | CO[C@@H](C)c1ncc(N2CCN(C3CC3)CC2)cc1-c1c2c3cc(ccc3n1CCOC1CCOCC1)-c1csc(n1)[C@@H](N1CCC3(COC3)C1)[C@H](NC(=O)C13CC(C1)C(C)O3)C(=O)N1CCC[C@H](N1)C(=O)OCC(C)(C)C2 (mixture of isomers) [Example A455] | greater decrease in cell viability
< 1000 | CO[C@@H](C)c1ncc(N2CCN(C3CC3)CC2)cc1-c1c2c3cc(ccc3n1CCOC1CCOCC1)-c1csc(n1)[C@@H](N1CC3(COC3)C1)[C@H](NC(=O)N1CC[C@H]1C)C(=O)N1CCC[C@H](N1)C(=O)OCC(C)(C)C2 (racemic) [Example A456] | greater decrease in cell viability
< 1000 | CO[C@@H](C)c1ncc(N2CCN(C3CC3)CC2)cc1-c1c2c3cc(ccc3n1CCOC1CCOCC1)-c1coc(n1)[C@@H](N1CCCC1)[C@H](NC(=O)[C@@H]1[C@@H](C)[C@H]1c1ccncn1)C(=O)N1CCC[C@H](N1)C(=O)OCC(C)(C)C2 (racemic) [Example A457] | greater decrease in cell viability
